Library screening results

The chains behind the UniProt entries cited, without tags or fusion partners.
UniProt E9BF75, entry or part of it: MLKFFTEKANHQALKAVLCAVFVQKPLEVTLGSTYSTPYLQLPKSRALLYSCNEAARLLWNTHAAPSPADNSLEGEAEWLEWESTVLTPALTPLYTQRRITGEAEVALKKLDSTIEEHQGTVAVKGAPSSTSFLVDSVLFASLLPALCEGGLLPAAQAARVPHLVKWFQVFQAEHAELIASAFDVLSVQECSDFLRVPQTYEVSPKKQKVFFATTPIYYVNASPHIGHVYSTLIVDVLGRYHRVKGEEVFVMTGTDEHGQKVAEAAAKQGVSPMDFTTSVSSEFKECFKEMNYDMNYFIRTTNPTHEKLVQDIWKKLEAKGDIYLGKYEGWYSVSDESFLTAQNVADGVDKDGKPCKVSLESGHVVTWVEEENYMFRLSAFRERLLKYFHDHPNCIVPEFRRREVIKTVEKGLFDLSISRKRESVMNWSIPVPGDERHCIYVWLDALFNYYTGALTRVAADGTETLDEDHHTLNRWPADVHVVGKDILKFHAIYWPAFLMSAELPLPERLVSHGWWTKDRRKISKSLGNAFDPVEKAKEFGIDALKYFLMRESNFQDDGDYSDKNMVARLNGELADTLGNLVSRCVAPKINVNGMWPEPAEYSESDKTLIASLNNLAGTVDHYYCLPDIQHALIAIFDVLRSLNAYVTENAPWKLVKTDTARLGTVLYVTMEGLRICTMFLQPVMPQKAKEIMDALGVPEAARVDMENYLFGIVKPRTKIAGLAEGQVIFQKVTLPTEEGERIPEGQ

Measurements from “University of Dundee, Small-Polar-MMV Screening Library” (2021), ChEMBL document CHEMBL3988442.

Results are percentages, as filed.
The record does not define 0% and 100%; most values in the screen are far below 50% and negative numbers occur (in some assays of this library far below -100).
This is an unselected part of the compounds tested.

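Primary screen of methionyl-tRNA synthetase; the read-out is not stated. Target: Methionyl-tRNA synthetase (putative), Leishmania donovani (UniProt E9BF75). The test concentration is not given. The values are filed as inhibition. Size under these conditions: about 68,000 compounds, about 24 of them at 50% or above in at least one test.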

| Compound | inhibition |
|---|---|
| `N#CCCN(c1ccc(F)cc1)S(=O)(=O)CC1CCCCO1` (configuration not stated) | 8.333% |
| `Cc1nc(C2CCCN2Cc2nnc(Cc3ccccc3)o2)no1` (configuration not stated) | 4.467% |
| `COc1cc(I)c(Cl)cc1C(=O)N(C)CC(=O)NC(C)(C)C` | 18.08% |
| `Cc1cc(C(=O)N2CCCC(N3CCCCCC3)C2)nn1C(C)(C)C` (configuration not stated) | 1.003% |
| `CCN(C)S(=O)(=O)N(CC)Cc1ccc2c(c1)OCO2` | 10.93% |
| `CC(C)S(=O)(=O)N1CCCC(c2cccc(C(=O)O)c2)C1` (configuration not stated) | 8.541% |
| `CC(=O)N1CCCCC1c1nc(C)cc(-c2ccccc2C(=O)O)n1` (configuration not stated) | 16.67% |
| `CN1CCCC1c1cccc(Cc2ccc(F)cc2)n1` (configuration not stated) | 9.04% |
| `Cc1nn(C)c(Cl)c1C1CCCN1C(=O)c1cc[nH]n1` (configuration not stated) | 6.536% |
| `CSCc1cccc(S(=O)(=O)NCCCN2CCOCC2)c1` | 9.449% |
| `Cc1nc(NCC2CC2)nc2c1COCC21CCN(C(=O)C(C)(C)C)C1` (configuration not stated) | 6.468% |
| `CC(C)OCCN1CCN(c2ccc(Cl)cn2)CC1` | 20.6% |
| `Cc1nc(Nc2ncccn2)cc(C2CCN(CC(C)C)C2)n1` (configuration not stated) | 15.53% |
| `Cc1ccc(N2CCCC(N(C)Cc3cc(C)on3)C2)nn1` (configuration not stated) | 18.18% |
| `CCC(NC(=O)NCc1cc(Cl)ccc1OC)c1noc(C)n1` (configuration not stated) | 15.25% |
| `O=C(NCc1ccc(Br)cc1)NCC1CCOC1` (configuration not stated) | 5.842% |
| `COc1ccc(-c2c(C)nn3c(=N)c(C#N)n[nH]c23)cc1` | 14.92% |
| `CS(=O)(=O)CCC(=O)N1C[C@@H]2CC[C@H](C1)N(Cc1ccccn1)C2=O` | 0.7117% |
| `O=C(Nc1ccc(F)cc1)N(CCC(F)(F)F)C[C@H](O)CO` | 5.249% |
| `CC(O)CN1CCC(CNCc2cccc(Br)c2)CC1` (configuration not stated) | 7.19% |
| `COc1cc(CCC(=O)NC(C)C(=O)O)ccc1OCC(F)(F)F` (configuration not stated) | 9.143% |
| `Cc1nc(N2C[C@@H](CN3CCCN(C)CC3)[C@@H](CO)C2)c2ccsc2n1` | 5.974% |
| `O=C(c1ccccc1)N1CCCn2c(CN3CCCCC3)nnc2C1` | 12.09% |
| `Cc1cccnc1CSCCCNS(C)(=O)=O` | 0.5013% |
| `O=C(NCC1CCOC1)Nc1ccc(Oc2cccc(F)c2)nc1` (configuration not stated) | 16.71% |
| `Cc1noc(C)c1S(=O)(=O)N1CCc2nc(C3CCNCC3)ncc2C1` | 19.79% |
| `CC(=O)N[C@H]1CN(S(=O)(=O)N(C)Cc2ccccc2)C[C@@H]1C1CC1` | 7.627% |
| `CC(=O)Nc1ccc2nc(CN(C)Cc3noc(C)n3)ccc2c1` | 12.77% |
| `CCSCCN1CCCN(S(C)(=O)=O)CC1` | -24.93% |
| `CNC(=O)c1ccc(OC)c(NCc2ncc(-c3cccs3)o2)c1` | 22.16% |
| `COCC1CC2(CCN(Cc3cccnc3)CC2)CN1C(C)C` (configuration not stated) | 1.307% |
| `O=C(NC1(c2nc(C3CC3)no2)CCCCC1)c1cccnc1O` | 11.8% |
| `COc1ccc(F)c(CN2CCCC(O)(CNCC(C)(C)C)C2=O)c1` (configuration not stated) | 1.804% |
| `CCCNC(=O)Nc1cc2c(cc1SC)OCCO2` | 12.38% |
| `N#Cc1ccc(CN2C[C@@H]3OCC(=O)N[C@@H]3C2)cc1` | 4.407% |
| `CN1CCCCC1c1ncc2c(n1)CCN(CCCc1ccccc1)C2` (configuration not stated) | 29.77% |
| `Cc1sc2ncnc(N3CCC(N(C)Cc4cnn(C)c4)CC3)c2c1C` | 24.38% |
| `CCn1ccnc1CN1CCN(CCOc2ccc(C#N)cc2)CC1` | 18.44% |
| `CN(C)CCOCC1CN(Cc2cccs2)Cc2ccnn2C1` (configuration not stated) | 2.614% |
| `CC1(C(=O)NC2CCCC2)CN(c2cnccn2)CCO1` (configuration not stated) | 14.84% |
| `COCC1CN(C(=O)c2cccs2)Cc2nccn2C1` (configuration not stated) | 4.945% |
| `COc1ccccc1N1CCN(C(=O)Cn2nc(C)cc2C)CC1(C)C` | 13.64% |
| `c1coc(CN2CCC3(CC2)CC(N2CCCC2)CO3)c1` (configuration not stated) | -0.5556% |
| `O=C(NCCc1cc(F)ccc1F)NC(CO)c1ccccc1` (configuration not stated) | 13.26% |
| `Brc1cccc(C2(CNCc3cc[nH]c3)CCOCC2)c1` | 13.53% |
| `O=C(Nc1nncs1)N1CCCN(C2CCCC2)CC1` | 5.155% |
| `Cc1ccnc(NC(=O)C(C)Cn2cncn2)c1` (configuration not stated) | 11.04% |
| `CCC(CC)(CNC(C)=O)NC(C)c1ccccc1` (configuration not stated) | 6.964% |
| `O=C(NCc1cc(-c2ccccc2)no1)NCC1CCCO1` (configuration not stated) | 14.64% |
| `CS(=O)(=O)Cc1ccc(CNc2ncc(C#N)cc2Cl)cc1` | 11.98% |
| `Cc1ccccc1C(=O)NCc1ccnc(N(C)C)c1` | 17.47% |

The first 6 entries again:

For N#CCCN(c1ccc(F)cc1)S(=O)(=O)CC1CCCCO1 (configuration not stated) the result was 8.333%.
For Cc1nc(C2CCCN2Cc2nnc(Cc3ccccc3)o2)no1 (configuration not stated) the result was 4.467%.
For COc1cc(I)c(Cl)cc1C(=O)N(C)CC(=O)NC(C)(C)C the result was 18.08%.
For Cc1cc(C(=O)N2CCCC(N3CCCCCC3)C2)nn1C(C)(C)C (configuration not stated) the result was 1.003%.
For CCN(C)S(=O)(=O)N(CC)Cc1ccc2c(c1)OCO2 the result was 10.93%.
For CC(C)S(=O)(=O)N1CCCC(c2cccc(C(=O)O)c2)C1 (configuration not stated) the result was 8.541%.